The values that follow come from PubChem BioAssay.

Molecules are shown by their SMILES. The list shows a part of the results. Measured potencies and affinities stand elsewhere. Where no call is shown, the source marks the result inconclusive.

Assay [1] can be described thus: Drosophila SCA1 whole organism dose response for polyglutamine toxicity reduction (AID 1595). The following applies: Drosophila SCA1 polyglutamine model, at 1 µM, stronger effect = higher value.
Assay [2] is described as follows: PubChem AID 1597. The following applies: Drosophila SCA1 polyglutamine model, at 1 µM, stronger effect = higher value.

Consider `CCCCC1C(=O)N(c2ccccc2)N(c2ccc(O)cc2)C1=O` (stereo unspecified), for which the suppression of toxicity in assay [1] was 0; in assay [2] it was 3.57.
Regarding `NC(=O)NC(=O)Cc1ccccc1`, the suppression of toxicity in assay [1] turned out to be 4.29; in assay [2], 6.42.
The like results for `NC(CO)C(=O)NNCc1ccc(O)c(O)c1O` (stereo unspecified) were, in that order, 2.85 and 2.15.
The corresponding values for `CC(=O)N1CCN(c2ccc(OCC3CO[C@](Cn4ccnc4)(c4ccc(Cl)cc4Cl)O3)cc2)CC1` (stereo partly specified) are 8.57 and 0.
Regarding `COc1ccc2c(c1OC)C(=O)O[C@H]2[C@@H]1c2ccccc2CCN1C`, the suppression of toxicity stood at 8.57 in assay [1] and 12.1 in assay [2].
With `CC(C)CC1NC(=O)CNC1=O` (stereo unspecified), the figures for the suppression of toxicity in assay [1] and in assay [2] were 2.85 and 5, respectively.
For the compound `CCCCC(=O)O[C@H]1CCC2C3CCc4cc(O)ccc4C3CC[C@@]21C` (stereo partly specified), the figures for the suppression of toxicity in assay [1] and in assay [2] were 0 and 7.14, respectively.
The corresponding values for `Cc1onc(-c2c(Cl)cccc2Cl)c1C(=O)N[C@@H]1C(=O)N2[C@@H]1SC(C)(C)[C@@H]2C(=O)O` are 2.86 and 5.71.
Regarding `CC1(C)S[C@@H]2[C@H](NC(=O)C(C(=O)O)c3ccccc3)C(=O)N2[C@H]1C(=O)O` (stereo partly specified), the suppression of toxicity in assay [1] worked out at 0; in assay [2] it was 3.58.
The corresponding values for `CN[C@@H]1C(OC2[C@H](O[C@H]3[C@H](O)[C@@H](O)[C@H](N=C(N)N)[C@@H](O)[C@@H]3N=C(N)N)OC(C)[C@]2(O)CO)OC(CO)C(O)C1O` (stereo partly specified) are 10 and 0.
The corresponding values for `S=P(N1CC1)(N1CC1)N1CC1` are 0 and 4.29.
The corresponding values for `CO/N=C(\C(=O)NC1C(=O)N2C(C(=O)O)=C(CSc3nc(=O)c(O)nn3C)CS[C@H]12)c1csc(N)n1` (stereo partly specified) are 5.71 and 12.9.
Consider `COC(=O)C(C)C[N+](C)(C)C` (stereo unspecified), for which the suppression of toxicity came out at 2.86 in assay [1] and 2.15 in assay [2].
For `CC(C)CC(NC(=O)CCN)C(=O)O` (stereo unspecified), the suppression of toxicity is 8.57 in assay [1] and 10.7 in assay [2].
The corresponding values for `NCC[C@@H](O)C(=O)N[C@@H]1C[C@H](N)[C@@H](O[C@H]2O[C@H](CN)[C@@H](O)[C@H](O)[C@H]2O)[C@H](O)[C@H]1O[C@H]1O[C@H](CO)[C@@H](O)[C@H](N)C1O` (stereo partly specified) are 0 and 7.14.
The corresponding values for `NC(=O)c1ccc[n+]([C@@H]2O[C@H](COP(=O)([O-])OP(=O)(O)OC[C@H]3O[C@@H](n4cnc5c(N)ncnc54)[C@H](OP(=O)(O)O)[C@@H]3O)[C@@H](O)[C@H]2O)c1` are 0 and 2.15.
The like results for `CC[C@H](C)C(=O)O[C@H]1CCC=C2C=C[C@H](C)C(CCC3C[C@@H](O)CC(=O)O3)[C@H]21` (stereo partly specified) were, in that order, 2.85 and 4.29.
For `NCCc1ccc(O)c(O)c1`, the suppression of toxicity stood at 4.29 in assay [1] and 6.43 in assay [2].
For the compound `CC(=O)NC(Cc1ccccc1)C(=O)O` (stereo unspecified), the figures for the suppression of toxicity in assay [1] and in assay [2] were 5.71 and 0.715, respectively.
`OCC(O)CN1CCN(c2ccccc2)CC1` (stereo unspecified): the suppression of toxicity in assay [1] turned out to be 4.29; in assay [2], 6.42.
Regarding `C/C=C/CC(C)C(O)C1C(=O)NC(CC)C(=O)N(C)CC(=O)N(C)C(CC(C)C)C(=O)NC(C(C)C)C(=O)N(C)C(CC(C)C)C(=O)NC(C)C(=O)NC(C)C(=O)N(C)C(CC(C)C)C(=O)N(C)C(CC(C)C)C(=O)N(C)C(C(C)C)C(=O)N1C` (stereo unspecified), the suppression of toxicity in assay [1] came to 2.86; in assay [2], 1.43.
As to `C[C@]12CCC3c4ccc(O)cc4CCC3C1CC[C@@H]2OC(=O)CCC1CCCC1` (stereo partly specified), the suppression of toxicity in assay [1] is 0; in assay [2], 1.43.
On to `Oc1cccc(O)c1`, for which the suppression of toxicity in assay [1] stood at 14.3; in assay [2], 22.9.
For the compound `CC1(C)S[C@@H]2C(N3C(=O)[C@@H](c4ccccc4)NC3(C)C)C(=O)N2[C@H]1C(=O)O` (stereo partly specified), the suppression of toxicity in assay [1] is 7.14; in assay [2], 12.9.
The like results for `Cc1cc(C(C)(C)CC(C)(C)C)ccc1OCCOCC[N+](C)(C)Cc1ccccc1` were, in that order, 0 and 0.
Take `CN1Cc2c(N)cccc2C(c2ccccc2)C1` (stereo unspecified): the suppression of toxicity was 8.57 in assay [1] and 10 in assay [2].
The like results for `CC(=O)[C@@]1(O)CCC2C3C=C(Cl)C4=CC(=O)[C@@H]5CC5[C@]4(C)C3CC[C@@]21C` (stereo partly specified) were, in that order, 2.85 and 3.57.
In the case of `COC(=O)Nc1nc2ccc(Sc3ccccc3)cc2[nH]1`, the suppression of toxicity in assay [1] came to 2.85; in assay [2] it was 7.14.
